Experimental data published in article doi:10.1101/2022.03.11.483896.
Like-named read-outs stand apart in the source and are kept apart here. These are yes or no findings as the source states them, for the method shown. In cells and extracts the contact can be indirect. Some entries that bind do so weakly or less than the wild type.

The chains behind the UniProt entries cited, without tags or fusion partners. Residues count along the entry.
UniProt P01009, residues 25-418: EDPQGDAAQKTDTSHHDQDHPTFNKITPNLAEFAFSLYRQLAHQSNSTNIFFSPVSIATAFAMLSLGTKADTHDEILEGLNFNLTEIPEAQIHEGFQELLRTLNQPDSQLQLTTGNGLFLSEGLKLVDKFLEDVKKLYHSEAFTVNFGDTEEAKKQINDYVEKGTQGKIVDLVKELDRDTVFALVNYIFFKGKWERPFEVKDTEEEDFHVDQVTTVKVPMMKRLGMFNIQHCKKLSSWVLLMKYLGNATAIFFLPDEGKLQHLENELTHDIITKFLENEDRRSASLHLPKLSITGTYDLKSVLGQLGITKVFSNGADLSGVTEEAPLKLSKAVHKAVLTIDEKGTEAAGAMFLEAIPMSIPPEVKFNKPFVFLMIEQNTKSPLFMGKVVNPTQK
UniProt P04150: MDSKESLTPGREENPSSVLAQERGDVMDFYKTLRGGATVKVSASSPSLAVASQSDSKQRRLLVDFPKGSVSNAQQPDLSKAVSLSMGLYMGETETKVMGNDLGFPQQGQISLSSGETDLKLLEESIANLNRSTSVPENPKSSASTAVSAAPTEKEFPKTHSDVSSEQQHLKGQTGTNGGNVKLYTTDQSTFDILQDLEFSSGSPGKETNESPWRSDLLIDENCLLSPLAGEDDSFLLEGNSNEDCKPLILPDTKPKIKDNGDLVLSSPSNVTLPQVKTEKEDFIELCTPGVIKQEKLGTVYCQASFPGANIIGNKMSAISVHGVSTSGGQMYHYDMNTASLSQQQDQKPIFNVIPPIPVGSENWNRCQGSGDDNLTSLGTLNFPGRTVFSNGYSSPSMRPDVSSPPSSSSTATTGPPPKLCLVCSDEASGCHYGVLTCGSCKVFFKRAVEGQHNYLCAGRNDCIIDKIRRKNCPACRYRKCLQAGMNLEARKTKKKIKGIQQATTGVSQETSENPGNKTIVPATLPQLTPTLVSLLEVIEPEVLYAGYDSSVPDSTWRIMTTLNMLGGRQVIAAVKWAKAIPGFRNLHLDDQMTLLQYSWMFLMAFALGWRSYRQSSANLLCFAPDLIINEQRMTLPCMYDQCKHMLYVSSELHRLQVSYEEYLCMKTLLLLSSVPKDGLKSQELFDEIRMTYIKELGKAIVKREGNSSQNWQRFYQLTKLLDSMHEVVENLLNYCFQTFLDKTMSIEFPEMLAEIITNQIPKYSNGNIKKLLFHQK

How the values were obtained:
Test in all cases: co-IP
[1] = molecular target: Alpha-1-antitrypsin (human (endogenous in THP-1)) (UniProt P01009)
[2] = molecular target: Glucocorticoid receptor (monocyte-derived macrophages) (human (endogenous in MDM)) (UniProt P04150)
[3] = molecular target: Glucocorticoid receptor (human (endogenous in THP-1)) (UniProt P04150)
[4] = molecular target: Glucocorticoid receptor (human (endogenous in THP-1)) (UniProt P04150); remark: listed apart in the source

Glucocorticoid receptor (from UniProt P04150 1-777)
binding [1]: binds

Alpha-1-antitrypsin (monocyte-derived macrophages, PiMM) (from UniProt P01009 25-418)
binding [2]: binds

Alpha-1-antitrypsin (from UniProt P01009 25-418)
binding [3]: binds | binding [4]: binds
